Assay results: PubChem BioAssay AID434947 (Broad Institute, 2010)
In all, about 2,200 compounds went through this assay and about 15 (0.7%) were called active.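 The calls were made as follows: active = fitted half-maximal concentration for loss of luminescence signal no more than a set limit of log units above the top tested concentration; inconclusive = flat fit with 30 to 70% signal loss, or invalid fit; inactive = half-maximal concentration above that set limit.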 This is one part of the list.

Test: inhibitors of ADP-Glo detection reagents, dose response, artefact control for GSK3beta inhibitor project, biochemical, luminescence, cell-free, homogeneous (AID 434947);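 also: kinase-free counter screen of ADP-Glo detection reagents for GSK3beta hits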
Details: 5 uM ADP

EC50, inactive:
O=C1CC(c2c[nH]c3ccccc23)C(=O)N1c1ccccc1 (stereo not drawn) > 30 µM
c1ccc(-c2nc(NCc3cccnc3)c3ccccc3n2)cc1 > 0.42 µM
C[C@H](C(O)c1ccccc1)N(C)C(=O)CN (stereo partly drawn) > 30 µM
Cc1ccc2c(CN3CCN(Cc4ccccc4)CC3)cc(=O)oc2c1C > 30 µM
O=C(CN(Cc1cccs1)C(=O)CCC(=O)Nc1ccccn1)NCc1ccccc1 > 30 µM
COc1ccc(CN(CC(=O)NCc2ccccc2)C(=O)CCC(=O)Nc2cc(C)ccn2)cc1 > 30 µM
COc1ccc2nc(C)cc(N3CCOCC3)c2c1 > 30 µM
Nc1nc(Nc2ccccc2F)nc(NCCO)c1[N+](=O)[O-] > 30 µM
N#Cc1c(-c2ccccc2)nc(-c2cccnc2)[nH]c1=O > 30 µM
CC1(C)CC(=O)C=C(Nc2ccccn2)C1 > 30 µM
Cc1ccc(C(=O)COC(=O)c2ccc(O)cc2)cc1 > 30 µM
COc1cccc(C(=O)Nc2nc3ccc(S(C)(=O)=O)cc3s2)c1 > 30 µM
O=c1c2c3c(sc2n2c(=S)[nH]nc2n1-c1ccccc1)CCC3 > 30 µM
CCCn1c(SCC(=O)Nc2ccccc2OC)nnc1-c1ccco1 > 30 µM
CCN1CCN(c2cc(C)c3cc(NC(=O)c4cc(OC)cc(OC)c4)ccc3n2)CC1 > 30 µM
C=CCNc1nc(N)c([N+](=O)[O-])c(Nc2cccc(Cl)c2)n1 > 30 µM
CC(=O)Nc1ccc(S(=O)(=O)N(Cc2cccnc2)Cc2cc3ccccc3[nH]c2=O)cc1 > 30 µM
Cc1cccc(COc2ccc(/C=N/NC(=O)c3nnn(-c4nonc4N)c3CN3CCCCC3)cc2)c1 > 30 µM
O=C(Nc1cccc(-c2cnc3ccccc3n2)c1)c1ccccc1 > 30 µM
O=C(Nc1ccccc1)Nc1ncc([N+](=O)[O-])s1 > 30 µM
COc1cccc(NC(=O)NNS(=O)(=O)c2ccc(OC)cc2OC)c1 > 30 µM
O=C(Nc1ccccc1)Nc1ccccn1 > 30 µM
O=C1OCCC1Sc1nnc(-c2ccc(O)cc2)o1 (stereo not drawn) > 30 µM
CC1(C)Nc2ccc(O)cc2-c2c1ssc2=S > 30 µM
Nc1nonc1-n1nnc(C(=O)N/N=C/c2cccc(F)c2)c1CN1CCCCCC1 > 30 µM
COc1cccc(/C=C2/Sc3ccc(C(=O)NCCCN4CCCC4)cc3NC2=O)c1 > 30 µM
CN1CC(=O)Nc2ccc([N+](=O)[O-])cc2C1=O > 30 µM
COc1ccccc1-c1cc2ccccc2[nH]1 > 30 µM
CN1CCc2c(sc3c2c(=O)n(-c2ccc(Cl)cc2)c2nncn32)C1 > 30 µM
COc1cccc(N(CC(=O)NCC2CCCO2)C(=O)CCC(=O)Nc2nccs2)c1 (stereo not drawn) > 30 µM
CN1CCc2c(sc3c2c(=O)n(-c2ccccc2)c2nncn32)C1 > 30 µM
O=c1[nH]cnc2c1ncn2[C@@H]1O[C@H](CO)[C@@H](O)[C@H]1O > 30 µM
COc1cc(/C=C2\Oc3cc(O)ccc3C2=O)ccc1O > 30 µM
Cc1ccc(-c2nn(-c3ccccc3)cc2CO)cc1 > 30 µM
CCOc1ccc(-c2nnc3ccc(SC)nn23)cc1 > 30 µM
COc1ccc(Nc2oc(COc3ccccc3F)nc2C#N)cc1 > 30 µM
O=C(O)c1cccc(-c2ccc(/C=N/Nc3ccc([N+](=O)[O-])cc3)o2)c1 > 30 µM
COCCCNc1nc(N)c([N+](=O)[O-])c(NCc2ccccc2)n1 > 30 µM
Cn1c(=S)n(CCC(=O)O)c2ccccc21 > 30 µM
COc1ccc(/C=C2\SC(=NCc3ccccc3)NC2=O)cc1 > 30 µM
CN(C)c1ccc(N=Nc2ccc(S(N)(=O)=O)cc2)cc1 > 30 µM
Nc1nc(NCCCN2CCOCC2)nc(Nc2ccc(Cl)cc2)c1[N+](=O)[O-] > 30 µM
Oc1ccc(/C=N/Nc2ncc(Br)cn2)c(O)c1 > 30 µM
COc1cc(C(=O)NC(=S)N(CCc2ccccc2)CCc2ccccc2)cc(OC)c1OC > 30 µM
O=C(O)c1cccc(Nc2nc(-c3ccccc3)nc3ccccc23)c1 > 30 µM
c1ccc(-n2cnnc2SCc2cn3cccnc3n2)cc1 > 30 µM
Fc1ccc(CSc2nnc(-c3cccs3)o2)cc1 > 30 µM
COc1ccc(-c2nnc(NC(=O)C3=COCCO3)o2)cc1 > 30 µM
Cn1c(=O)c2[nH]c(CN3CCN(Cc4ccccc4)CC3)nc2n(C)c1=O > 30 µM
Cc1cccc(CSc2ccc3nnc(-c4cccs4)n3n2)c1 > 30 µM
C/C(=N\NC(=O)c1ccc(C(=O)N/N=C(\C)c2ccco2)o1)c1ccco1 > 30 µM
O=C(Nc1cccc2c1C(=O)NC2=O)c1cccnc1Cl > 30 µM
COCCn1c(SCC(=O)Nc2ccccc2OC)nc2ccccc21 > 30 µM
Cc1c(CN(C)C)c2c(n1C)C(=O)c1ccc(Br)cc1-2 > 30 µM
Nc1nc(Nc2ccccc2)sc1C(=O)c1ccccc1 > 30 µM
S=c1[nH]c(-c2ccccc2)cn1/N=C/c1ccncc1 > 30 µM
COCc1c(C(N)=O)nnn1-c1nonc1N > 30 µM
NC(=O)c1c(NC(=O)CCCn2cnc([N+](=O)[O-])n2)sc2c1CCCC2 > 30 µM
CCOc1ccc2c(c1)C(=O)C(=O)N2CC1COc2ccccc2O1 (stereo not drawn) > 30 µM
Cc1ccccc1NC(=O)CN1C(=O)c2ccccc2C1=O > 30 µM
CCOc1cc(C2C3=C(CC(C)(C)CC3=O)Nc3n[nH]c(C)c32)ccc1O (stereo not drawn) > 30 µM
COCCn1c(SCC(=O)NC(=O)NCc2ccccc2)nc2ccccc21 > 30 µM
COc1cccc(NC(=O)CN(C)C(=O)c2cc(-c3ccc(F)cc3)nc3ccccc23)c1 > 30 µM
Cc1ccc(Nc2nc(NCCCN3CCOCC3)nc(N)c2[N+](=O)[O-])cc1 > 30 µM
CC(C)=CCc1c(O)ccc(C2COc3c(CC=C(C)C)c(O)cc(O)c3C2=O)c1O (stereo not drawn) > 30 µM
NS(=O)(=O)c1ccc(-c2ccc(/C=C3\NC(=S)NC3=O)o2)cc1 > 30 µM
Cc1ccc(-c2nn(-c3ccccc3)cc2/C=N/O)cc1 > 30 µM
O=C(CSc1n[nH]c(=O)[nH]c1=O)c1ccc(Cl)cc1Cl > 30 µM
CCN1/C(=C/c2ccc3cccc(C)c3[n+]2CC)Sc2ccccc21 > 30 µM
CC(=O)Nc1ccc(S(=O)(=O)Nc2ccc3c(c2)OCCO3)cc1Cl > 30 µM
Nc1ncnc2c1ncn2[C@@H]1O[C@H](CO)[C@@H](O)[C@@H]1O > 30 µM
Cc1ccc(-c2nn(-c3ccccc3)cc2/C=N/NC(=O)c2ccc(Br)o2)cc1 > 30 µM
COc1ccc(-c2cc(-c3ccco3)[nH]c(=O)c2C#N)cc1 > 30 µM
O=C(NCc1cccs1)c1cc(C2CC2)on1 > 30 µM
CCOc1ccc(N2C(=O)S/C(=C\c3cccn3C)C2=O)cc1 > 30 µM
CCOC(=O)CSc1nnc(-c2cccs2)n1-c1ccccc1 > 30 µM
COc1ccc2c(c1)-c1c(ssc1=S)C(C)(C)N2S(=O)(=O)c1ccc(C)cc1 > 30 µM
Cc1cc(NC(=O)CSc2ccc3nnc(-c4cccs4)n3n2)no1 > 30 µM
CN(C)c1nc(-c2cccnc2)nc(-c2ccccc2)c1C#N > 30 µM
CCOC(=O)c1nnn(-c2nonc2N)c1-c1cccs1 > 30 µM
O=C(COc1ccccc1[N+](=O)[O-])N/N=C/c1ccc(O)cc1 > 30 µM
Cc1oc2ccc(OC(=O)c3cccs3)cc2c1C(=O)OC(C)C > 30 µM
Nc1nonc1-n1nnc(C(=O)N/N=C/c2ccoc2)c1CSc1ccc(Cl)cc1 > 30 µM
CN(Cc1c(C(=O)N/N=C/c2ccccc2F)nnn1-c1nonc1N)c1ccccc1 > 30 µM
O=C(Nc1ccc(-c2nc3ccccc3o2)cc1)c1ccc(N2CCOCC2)c([N+](=O)[O-])c1 > 30 µM
OCC1(Cc2ccccc2)CCN(Cc2ccc(-c3ccco3)cc2)CC1 > 30 µM
COCc1c(C(=O)N/N=C\c2ccccn2)nnn1-c1nonc1N > 30 µM
CCCc1cc(O)c2c(C)cc(=O)oc2c1 > 30 µM
CCOc1ccc2c(c1)C(NC(C)=O)C(=O)N2CCN1CCOCC1 (stereo not drawn) > 30 µM
Cc1cc([N+](=O)[O-])c(C)cc1-c1ccc(/C=N/n2cnnc2)o1 > 30 µM
CC1CC(=O)Nc2ccc([N+](=O)[O-])cc2N1C (stereo not drawn) > 30 µM
Cc1ccccc1N(CC(=O)N/N=C/c1cc(Br)c(C)o1)S(C)(=O)=O > 30 µM
Cc1cc(C)c2nc(N(CCN(C)C)C(=O)c3ccc(S(=O)(=O)N(C)CC4CCCO4)cc3)sc2c1 (stereo not drawn) > 30 µM

Sorted by SMILES length (smallest number first): some entries from above.
EC50, inactive:
O=C(NCc1cccs1)c1cc(C2CC2)on1 > 30 µM
Cc1oc2ccc(OC(=O)c3cccs3)cc2c1C(=O)OC(C)C > 30 µM
COc1cccc(C(=O)Nc2nc3ccc(S(C)(=O)=O)cc3s2)c1 > 30 µM
O=C(COc1ccccc1[N+](=O)[O-])N/N=C/c1ccc(O)cc1 > 30 µM
NC(=O)c1c(NC(=O)CCCn2cnc([N+](=O)[O-])n2)sc2c1CCCC2 > 30 µM
COc1ccc2c(c1)-c1c(ssc1=S)C(C)(C)N2S(=O)(=O)c1ccc(C)cc1 > 30 µM
Cc1cc(C)c2nc(N(CCN(C)C)C(=O)c3ccc(S(=O)(=O)N(C)CC4CCCO4)cc3)sc2c1 (stereo not drawn) > 30 µM
